The values below come from article PMC10298087.

By UniProt entry, the sequences of proteins in these tests, tags left out.
UniProt P11940: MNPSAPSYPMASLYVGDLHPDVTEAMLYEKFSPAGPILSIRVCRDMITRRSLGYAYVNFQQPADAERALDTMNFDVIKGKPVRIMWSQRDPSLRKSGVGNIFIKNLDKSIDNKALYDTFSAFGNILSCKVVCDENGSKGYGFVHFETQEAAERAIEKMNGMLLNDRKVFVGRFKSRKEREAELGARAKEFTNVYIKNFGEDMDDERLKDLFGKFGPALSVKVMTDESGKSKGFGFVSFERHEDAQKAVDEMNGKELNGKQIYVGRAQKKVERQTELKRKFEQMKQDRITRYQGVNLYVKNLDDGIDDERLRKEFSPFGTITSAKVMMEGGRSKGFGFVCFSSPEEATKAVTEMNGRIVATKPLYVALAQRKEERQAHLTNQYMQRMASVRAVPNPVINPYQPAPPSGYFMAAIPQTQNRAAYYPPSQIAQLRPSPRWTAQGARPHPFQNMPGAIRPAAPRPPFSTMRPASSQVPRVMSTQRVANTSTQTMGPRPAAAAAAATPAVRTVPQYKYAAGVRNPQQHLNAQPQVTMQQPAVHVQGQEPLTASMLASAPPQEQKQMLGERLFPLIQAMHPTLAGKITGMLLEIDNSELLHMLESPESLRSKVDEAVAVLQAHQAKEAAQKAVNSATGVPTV
UniProt Q8IZ26: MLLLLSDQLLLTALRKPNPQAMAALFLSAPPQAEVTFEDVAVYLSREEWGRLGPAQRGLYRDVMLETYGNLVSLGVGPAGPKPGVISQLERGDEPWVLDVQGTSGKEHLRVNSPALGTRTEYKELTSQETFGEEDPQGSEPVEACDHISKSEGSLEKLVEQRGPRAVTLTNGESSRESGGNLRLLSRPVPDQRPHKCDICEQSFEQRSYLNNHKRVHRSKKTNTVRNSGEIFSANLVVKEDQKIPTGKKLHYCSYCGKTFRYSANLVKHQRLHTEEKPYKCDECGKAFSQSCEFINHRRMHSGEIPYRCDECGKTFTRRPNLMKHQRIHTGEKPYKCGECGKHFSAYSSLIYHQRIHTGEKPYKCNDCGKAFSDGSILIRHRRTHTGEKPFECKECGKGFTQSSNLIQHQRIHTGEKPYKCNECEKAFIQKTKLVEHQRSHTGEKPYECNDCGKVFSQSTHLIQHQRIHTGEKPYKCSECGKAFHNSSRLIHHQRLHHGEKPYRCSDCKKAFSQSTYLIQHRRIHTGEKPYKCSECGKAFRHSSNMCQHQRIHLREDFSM
UniProt Q15973: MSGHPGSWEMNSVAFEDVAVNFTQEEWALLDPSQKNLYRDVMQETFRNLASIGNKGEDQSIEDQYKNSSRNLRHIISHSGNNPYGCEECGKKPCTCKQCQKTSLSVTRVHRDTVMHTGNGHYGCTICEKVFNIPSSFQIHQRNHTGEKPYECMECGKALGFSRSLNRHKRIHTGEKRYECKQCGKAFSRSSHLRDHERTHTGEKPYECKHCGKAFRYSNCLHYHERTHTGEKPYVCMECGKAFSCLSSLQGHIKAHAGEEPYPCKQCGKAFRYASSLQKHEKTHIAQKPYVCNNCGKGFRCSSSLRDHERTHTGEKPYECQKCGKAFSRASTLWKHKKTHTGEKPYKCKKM
UniProt O14628: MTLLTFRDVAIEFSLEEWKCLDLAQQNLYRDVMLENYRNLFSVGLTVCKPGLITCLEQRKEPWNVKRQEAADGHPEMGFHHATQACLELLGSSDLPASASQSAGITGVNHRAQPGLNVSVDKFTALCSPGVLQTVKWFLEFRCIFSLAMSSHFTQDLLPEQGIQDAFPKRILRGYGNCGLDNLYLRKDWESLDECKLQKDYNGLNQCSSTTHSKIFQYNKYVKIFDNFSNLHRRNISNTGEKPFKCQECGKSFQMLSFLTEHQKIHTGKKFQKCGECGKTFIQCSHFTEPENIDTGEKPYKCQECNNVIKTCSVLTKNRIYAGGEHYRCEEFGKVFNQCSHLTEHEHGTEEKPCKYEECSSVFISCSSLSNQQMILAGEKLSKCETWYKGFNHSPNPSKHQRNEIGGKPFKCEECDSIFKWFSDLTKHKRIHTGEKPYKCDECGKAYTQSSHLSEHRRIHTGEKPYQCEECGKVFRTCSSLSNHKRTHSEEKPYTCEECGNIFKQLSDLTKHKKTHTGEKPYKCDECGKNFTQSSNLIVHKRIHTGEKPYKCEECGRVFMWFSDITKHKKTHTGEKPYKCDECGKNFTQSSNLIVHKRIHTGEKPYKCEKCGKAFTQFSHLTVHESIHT
UniProt A6NFI3: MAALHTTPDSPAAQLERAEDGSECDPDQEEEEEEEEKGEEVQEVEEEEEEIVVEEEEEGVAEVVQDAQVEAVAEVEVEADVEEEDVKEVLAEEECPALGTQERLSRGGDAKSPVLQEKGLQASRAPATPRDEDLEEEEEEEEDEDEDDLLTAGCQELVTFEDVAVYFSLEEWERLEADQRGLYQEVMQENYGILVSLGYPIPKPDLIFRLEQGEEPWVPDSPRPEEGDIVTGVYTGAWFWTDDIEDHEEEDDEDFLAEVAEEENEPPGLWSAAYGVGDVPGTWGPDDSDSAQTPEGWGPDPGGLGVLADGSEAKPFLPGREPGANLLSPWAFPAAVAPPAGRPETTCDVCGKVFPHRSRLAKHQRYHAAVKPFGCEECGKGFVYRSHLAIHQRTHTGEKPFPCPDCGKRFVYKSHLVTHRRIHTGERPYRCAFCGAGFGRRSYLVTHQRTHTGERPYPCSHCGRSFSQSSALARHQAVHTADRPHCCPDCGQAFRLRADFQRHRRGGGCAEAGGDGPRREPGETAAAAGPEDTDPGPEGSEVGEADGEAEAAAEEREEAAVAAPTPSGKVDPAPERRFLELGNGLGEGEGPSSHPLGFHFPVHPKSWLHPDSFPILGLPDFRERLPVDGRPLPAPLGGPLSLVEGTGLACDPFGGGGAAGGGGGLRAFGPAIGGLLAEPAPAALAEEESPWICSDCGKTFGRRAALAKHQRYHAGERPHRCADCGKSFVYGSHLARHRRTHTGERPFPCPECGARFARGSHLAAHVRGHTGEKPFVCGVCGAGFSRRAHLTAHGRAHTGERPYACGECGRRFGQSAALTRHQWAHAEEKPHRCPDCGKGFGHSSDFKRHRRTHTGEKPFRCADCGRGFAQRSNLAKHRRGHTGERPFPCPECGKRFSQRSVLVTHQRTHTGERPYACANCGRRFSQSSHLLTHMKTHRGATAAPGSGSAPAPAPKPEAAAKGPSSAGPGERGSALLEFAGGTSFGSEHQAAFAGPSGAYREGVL
UniProt O75467: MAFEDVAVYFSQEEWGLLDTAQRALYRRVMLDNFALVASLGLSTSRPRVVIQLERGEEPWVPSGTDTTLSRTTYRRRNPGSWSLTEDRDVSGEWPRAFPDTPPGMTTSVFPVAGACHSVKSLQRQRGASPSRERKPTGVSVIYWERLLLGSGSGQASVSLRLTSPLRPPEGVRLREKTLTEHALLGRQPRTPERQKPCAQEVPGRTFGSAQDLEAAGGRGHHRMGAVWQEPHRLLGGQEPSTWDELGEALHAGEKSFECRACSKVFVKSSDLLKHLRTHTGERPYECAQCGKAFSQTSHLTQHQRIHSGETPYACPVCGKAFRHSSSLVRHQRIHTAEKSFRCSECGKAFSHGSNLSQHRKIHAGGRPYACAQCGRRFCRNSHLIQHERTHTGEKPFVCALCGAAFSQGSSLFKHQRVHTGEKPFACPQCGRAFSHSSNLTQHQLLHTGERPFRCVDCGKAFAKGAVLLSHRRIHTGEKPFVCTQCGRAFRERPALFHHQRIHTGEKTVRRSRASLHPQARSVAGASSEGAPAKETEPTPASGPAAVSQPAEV
UniProt O60765: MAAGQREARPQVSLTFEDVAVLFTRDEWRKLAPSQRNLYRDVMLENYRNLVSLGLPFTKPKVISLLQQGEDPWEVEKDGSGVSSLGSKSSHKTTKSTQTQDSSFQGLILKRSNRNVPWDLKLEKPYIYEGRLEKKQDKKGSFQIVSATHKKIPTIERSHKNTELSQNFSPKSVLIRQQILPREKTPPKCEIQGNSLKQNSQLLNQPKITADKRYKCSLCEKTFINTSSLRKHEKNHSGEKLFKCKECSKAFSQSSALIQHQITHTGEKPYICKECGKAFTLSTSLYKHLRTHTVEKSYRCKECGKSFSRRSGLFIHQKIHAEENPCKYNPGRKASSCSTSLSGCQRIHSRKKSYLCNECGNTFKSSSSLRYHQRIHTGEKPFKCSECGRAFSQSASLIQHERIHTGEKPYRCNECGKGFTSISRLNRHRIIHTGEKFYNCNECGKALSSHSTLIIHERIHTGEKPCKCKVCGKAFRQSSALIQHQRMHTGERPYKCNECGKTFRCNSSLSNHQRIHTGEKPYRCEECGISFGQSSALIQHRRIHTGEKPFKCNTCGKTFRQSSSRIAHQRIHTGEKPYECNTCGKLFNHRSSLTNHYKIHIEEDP
UniProt Q9H8G1: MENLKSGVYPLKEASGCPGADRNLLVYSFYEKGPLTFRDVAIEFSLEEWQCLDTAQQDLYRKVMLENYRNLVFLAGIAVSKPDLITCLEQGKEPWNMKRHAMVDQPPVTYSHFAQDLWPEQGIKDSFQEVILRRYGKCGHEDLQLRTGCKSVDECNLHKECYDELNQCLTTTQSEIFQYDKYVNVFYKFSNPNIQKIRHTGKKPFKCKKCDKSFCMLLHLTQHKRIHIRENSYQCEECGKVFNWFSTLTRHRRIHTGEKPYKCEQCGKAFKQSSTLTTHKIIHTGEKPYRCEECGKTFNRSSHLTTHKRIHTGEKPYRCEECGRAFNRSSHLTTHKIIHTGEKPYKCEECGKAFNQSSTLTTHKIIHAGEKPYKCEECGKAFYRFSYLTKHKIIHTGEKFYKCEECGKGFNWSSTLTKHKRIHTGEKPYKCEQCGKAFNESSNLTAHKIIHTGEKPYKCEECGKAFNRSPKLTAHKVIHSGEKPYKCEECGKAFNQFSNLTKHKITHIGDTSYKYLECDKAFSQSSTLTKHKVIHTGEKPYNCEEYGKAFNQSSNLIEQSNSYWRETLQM
UniProt O94892: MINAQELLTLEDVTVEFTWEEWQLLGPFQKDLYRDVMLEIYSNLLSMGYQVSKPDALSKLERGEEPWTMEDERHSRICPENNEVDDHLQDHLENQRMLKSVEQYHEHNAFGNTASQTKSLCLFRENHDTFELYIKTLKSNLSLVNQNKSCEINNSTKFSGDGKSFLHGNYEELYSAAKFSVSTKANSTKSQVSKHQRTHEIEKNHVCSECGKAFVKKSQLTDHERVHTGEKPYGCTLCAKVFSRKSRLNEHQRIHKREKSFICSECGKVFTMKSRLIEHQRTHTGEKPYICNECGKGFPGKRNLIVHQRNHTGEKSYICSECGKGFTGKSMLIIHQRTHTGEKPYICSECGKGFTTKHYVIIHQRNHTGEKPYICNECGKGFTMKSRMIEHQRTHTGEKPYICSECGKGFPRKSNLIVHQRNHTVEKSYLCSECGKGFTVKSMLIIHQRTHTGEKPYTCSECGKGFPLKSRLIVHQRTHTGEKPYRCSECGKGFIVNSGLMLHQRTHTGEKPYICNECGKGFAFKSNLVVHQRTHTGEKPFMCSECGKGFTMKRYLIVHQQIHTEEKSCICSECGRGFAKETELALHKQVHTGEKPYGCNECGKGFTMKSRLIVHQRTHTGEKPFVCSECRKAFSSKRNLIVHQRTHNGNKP
UniProt Q96H40: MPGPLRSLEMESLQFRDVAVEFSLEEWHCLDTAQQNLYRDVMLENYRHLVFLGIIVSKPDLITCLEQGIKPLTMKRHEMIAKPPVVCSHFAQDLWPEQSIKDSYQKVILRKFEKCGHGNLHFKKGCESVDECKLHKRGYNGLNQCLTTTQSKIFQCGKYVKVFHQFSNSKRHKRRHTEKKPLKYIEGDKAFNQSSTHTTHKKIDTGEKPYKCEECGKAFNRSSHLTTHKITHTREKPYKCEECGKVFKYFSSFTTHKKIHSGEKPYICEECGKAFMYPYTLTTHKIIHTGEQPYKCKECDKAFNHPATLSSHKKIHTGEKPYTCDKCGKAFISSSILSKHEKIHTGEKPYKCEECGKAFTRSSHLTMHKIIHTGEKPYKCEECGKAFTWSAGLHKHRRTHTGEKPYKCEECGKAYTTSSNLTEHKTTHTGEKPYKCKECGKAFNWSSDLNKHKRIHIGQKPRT
UniProt Q8N587: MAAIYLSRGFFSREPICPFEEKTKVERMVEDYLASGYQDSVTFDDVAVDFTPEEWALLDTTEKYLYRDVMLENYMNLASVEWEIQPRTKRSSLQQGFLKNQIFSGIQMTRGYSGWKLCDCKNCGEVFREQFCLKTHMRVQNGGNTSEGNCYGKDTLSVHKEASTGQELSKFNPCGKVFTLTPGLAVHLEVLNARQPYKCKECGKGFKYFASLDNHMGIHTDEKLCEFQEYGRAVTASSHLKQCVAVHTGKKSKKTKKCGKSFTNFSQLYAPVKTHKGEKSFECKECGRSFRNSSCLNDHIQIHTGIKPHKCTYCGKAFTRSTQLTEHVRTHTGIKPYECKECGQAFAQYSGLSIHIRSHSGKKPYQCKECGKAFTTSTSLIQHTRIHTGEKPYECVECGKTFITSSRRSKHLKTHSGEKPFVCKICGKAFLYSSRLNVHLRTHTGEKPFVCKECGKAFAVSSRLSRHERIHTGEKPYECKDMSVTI

No constants are given. Whether binding was seen depends on the method and setting. Binding seen in cells or lysates may run through a third protein. These calls come from enrichment with a bait or labelling near it, and not all partners need be listed.

In assay [1] the target is wild-type TRIM28 (endogenous, K562 cells) (human (endogenous in K562)) (UniProt Q13263). Put plainly: affinity purification with mass spectrometry; IP of endogenous TRIM28 or TRIM28-K304Q from K562 cells with anti-TRIM28-N-conjugated protein A beads; washed, eluted with the antibody-generating peptide; MS (LTQ-Orbitrap Velos, Mascot).
The target in assay [2] is T1, TRIM28-K304Q (endogenous, knock-in K562 clone Q1) (human (endogenous in K562)) (UniProt Q13263).
T1 sequence: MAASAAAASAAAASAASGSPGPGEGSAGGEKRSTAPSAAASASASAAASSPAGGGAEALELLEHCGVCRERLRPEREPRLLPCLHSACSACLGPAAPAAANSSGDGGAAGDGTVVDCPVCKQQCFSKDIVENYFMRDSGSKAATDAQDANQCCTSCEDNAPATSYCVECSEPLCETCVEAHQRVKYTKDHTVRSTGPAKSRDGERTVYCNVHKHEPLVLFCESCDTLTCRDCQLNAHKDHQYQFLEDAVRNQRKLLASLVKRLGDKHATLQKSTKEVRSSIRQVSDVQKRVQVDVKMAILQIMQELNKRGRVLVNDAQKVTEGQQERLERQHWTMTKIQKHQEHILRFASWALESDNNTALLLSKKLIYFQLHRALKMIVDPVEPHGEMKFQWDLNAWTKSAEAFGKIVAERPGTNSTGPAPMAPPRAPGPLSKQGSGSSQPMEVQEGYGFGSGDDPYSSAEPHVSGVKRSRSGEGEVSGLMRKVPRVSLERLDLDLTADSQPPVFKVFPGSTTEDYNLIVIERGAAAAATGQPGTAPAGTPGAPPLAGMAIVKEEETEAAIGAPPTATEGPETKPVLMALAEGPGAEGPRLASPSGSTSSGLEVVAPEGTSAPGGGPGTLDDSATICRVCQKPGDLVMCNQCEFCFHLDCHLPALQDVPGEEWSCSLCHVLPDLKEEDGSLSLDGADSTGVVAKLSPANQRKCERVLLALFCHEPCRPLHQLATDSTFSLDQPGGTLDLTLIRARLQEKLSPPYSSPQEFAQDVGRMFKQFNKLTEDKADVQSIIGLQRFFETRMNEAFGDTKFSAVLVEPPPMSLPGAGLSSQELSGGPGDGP
Described as above.

In the case of PABP1 (from UniProt P11940 1-636), the binding entry in assay [1] and in assay [2] was “binds” throughout.

Turning to RBAK (from UniProt Q9NYW8 1-714), the binding entry in assay [1] and in assay [2] was “binds” in each case.

On to ZNF8 (from UniProt P17098 1-575), for which the binding result in assay [1] and in assay [2] was “binds” throughout.

On to ZNF34 (from UniProt Q8IZ26 1-560), for which the binding result in assay [1] and in assay [2] was “binds” in each case.

Regarding ZNF74 (from UniProt Q16587 1-644), the binding entry in assay [1] and in assay [2] was “binds” in each case.

As to ZNF77 (from UniProt Q15935 1-545), the binding result in assay [1] and in assay [2] was “binds” each time.

As for ZNF90 (from UniProt Q03938 1-601), the binding result in assay [1] and in assay [2] was “binds” throughout.

For ZNF91 (from UniProt Q05481 1-1191), the binding entry in assay [1] and in assay [2] was “binds” in each case.

Consider ZNF92 (from UniProt Q03936 1-586), for which the binding entry in assay [1] and in assay [2] was “binds” each time.

With ZNF100 (from UniProt Q8IYN0 1-542), the binding entry in assay [1] and in assay [2] was “binds” each time.

As to ZNF124 (from UniProt Q15973 1-351), the binding result in assay [1] and in assay [2] was “binds” throughout.

Regarding ZNF160 (from UniProt Q9HCG1 1-818), the binding entry in assay [1] and in assay [2] was “binds” each time.

As for ZNF195 (from UniProt O14628 1-629), the binding entry in assay [1] and in assay [2] was “binds” in each case.

Regarding ZNF250 (from UniProt P15622 1-560), the binding entry in assay [1] and in assay [2] was “binds” in each case.

Consider ZNF253 (from UniProt O75346 1-499), for which the binding result in assay [1] and in assay [2] was “binds” in each case.

As to ZNF267 (from UniProt Q14586 1-743), the binding result in assay [1] and in assay [2] was “binds” throughout.

Take ZNF273 (from UniProt Q14593 1-569): the binding result in assay [1] and in assay [2] was “binds” each time.

For ZNF274 (from UniProt Q96GC6 1-653), the binding result in assay [1] and in assay [2] was “binds” throughout.

As to ZNF316 (from UniProt A6NFI3 1-1004), the binding entry in assay [1] and in assay [2] was “binds” in each case.

Take ZNF324A (from UniProt O75467 1-553): the binding entry in assay [1] and in assay [2] was “binds” in each case.

Turning to ZNF354A (from UniProt O60765 1-605), the binding result in assay [1] and in assay [2] was “binds” throughout.

For the substance ZNF417 (from UniProt Q8TAU3 1-575), the binding result in assay [1] and in assay [2] was “binds” in each case.

For ZNF430 (from UniProt Q9H8G1 1-570), the binding result in assay [1] and in assay [2] was “binds” throughout.

Turning to ZNF432 (from UniProt O94892 1-652), the binding result in assay [1] and in assay [2] was “binds” each time.

Regarding ZNF441 (from UniProt Q8N8Z8 1-693), the binding result in assay [1] and in assay [2] was “binds” throughout.

Take ZNF445 (from UniProt P59923 1-1031): the binding result in assay [1] and in assay [2] was “binds” in each case.

For the substance ZNF460 (from UniProt Q14592 1-562), the binding entry in assay [1] and in assay [2] was “binds” in each case.

For ZNF485 (from UniProt Q8NCK3 1-441), the binding result in assay [1] and in assay [2] was “binds” in each case.

For ZNF486 (from UniProt Q96H40 1-463), the binding entry in assay [1] and in assay [2] was “binds” throughout.

On to ZNF561 (from UniProt Q8N587 1-486), for which the binding entry in assay [1] and in assay [2] was “binds” in each case.
